Test systems include P2RXL1 (human); PAFAH1B2 (human); PAGE2 (human); PAGE5 (human); PALM2 (human); PANK1 (human); PANK4 (human); PAPOLA (human); PARD6B (human); PARVG (human); PBEF1 (human); PBK (human); PBLD (human); PCDHB16 (human); PCDHGC4 (human); PCDHGC5 (human); PCK1 (human); PCNA (human); PCTP (human).
Common to all, as to assay: protein microarray (ProtoArray v5.0), streptavidin-Alexa Fluor 647
Details in all cases: 3'-biotin; 20 mM Tris (pH 7.5), 5 mM MgCl2, 100 mM KCl, 0.1% Tween-20, A/T-rich and random oligonucleotide blockers; temperature not stated; high values mean tight binding

The next assay deals with T1, PDCD5 (UniProt O14737).
T1 sequence: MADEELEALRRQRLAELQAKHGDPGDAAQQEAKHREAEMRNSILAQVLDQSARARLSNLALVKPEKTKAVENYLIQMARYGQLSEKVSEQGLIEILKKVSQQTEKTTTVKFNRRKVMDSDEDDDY

Several values for one entry are separate records, joined by “and”; a condition that tells them apart may be missing. Equal entries are not always repeated. The list shows a part of the results. For some assays here: Construct or isoform of the protein are uncertain.

The results in this text go back to paper PMC5996148.

With “GGTGACAGGGGTATGGGGAGGGG [G4-2 biotinylated (Ct1)]”, the binding signal is -0.377 z-score with P2RXL1 (human); -0.402 z-score with PAFAH1B2 (human); -0.397 z-score with PAGE2 (human); -0.396 z-score with PAGE5 (human); -0.384 z-score in the assay with PALM2 (human); -0.379 z-score in the assay on PANK1 (human). The binding signal in the assay on PANK4 (human) is -0.381 z-score; in the assay with PAPOLA (human), -0.392 z-score; with PARD6B (human), -0.364 z-score; in the assay on PARVG (human) it was -0.397 z-score; with PBEF1 (human), -0.374 z-score and -0.359 z-score; in the assay with PBK (human), -0.397 z-score. The binding signal with PBLD (human) was -0.387 z-score; in the assay with PCDHB16 (human), -0.381 z-score; in the assay with PCDHGC4 (human) it was -0.367 z-score; with PCDHGC5 (human), -0.371 z-score; in the assay with PCK1 (human) it was -0.399 z-score; in the assay on PCNA (human), -0.385 z-score. Further, the binding signal with PCTP (human) was -0.399 z-score; with PDCD5 it was -0.377 z-score.
